Test results reported in PubChem BioAssay AID328 (DTP/NCI, 2004).
The list is a part of this screen's results and no random one: it gathers tests that were run many times, whatever their T/C, doses with no T/C, and many T/C values between a quarter and a half above the control. Other doses and runs of a compound stand elsewhere. T/C gives the treated animals as a percentage of the vehicle group. Some entries give survivors of the animals treated and no T/C: the source holds a T/C of zero for them, seemingly a mark for toxic or unscored doses. Some doses without a T/C left all or most animals alive at the check, yet need not have been tolerated: survival well below the control is almost never listed, so the zero probably covers shortened survival too. Counts of survivors are from the toxicity check (mostly the fifth day) where no day follows; animals may have died later. Schedules are NCI's codes, read here as Q, the interval in days (D) or hours (H), X, the number of doses. Some entries hold several experiments; the results are listed from low to high. Where survival is the endpoint, the PubChem record calls one and a half times the control and up active, and a quarter to a half above the control has no call in these data; cut-offs in other NCI protocols can differ. Some T/C values are followed by the survivors on the day toxicity was checked, most often the fifth; without a count, all were alive then.

Tested on: BDF1 mice, P388 leukemia ip, median survival T/C
Test: NCI In Vivo Anticancer Drug Screen. Data for tumor model P388 Leukemia (intraperitoneal) in B6D2F1 (BDF1) mice
Conditions: T/C endpoint: median survival time, higher T/C = longer survival
How it was run: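 Each value expresses how treatment altered survival: treated-mouse outcome over vehicle-mouse outcome, both groups bearing the transplanted tumour.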

[1] = dose: 12.5 mg/kg/injection, schedule: Q04DX003 (ip), vehicle: saline with Tween-80
[2] = dose: 50.0 mg/kg/injection, schedule: Q01DX009 (ip), vehicle: saline
[3] = dose: 400.0 mg/kg/injection, schedule: Q01DX010 (ip), vehicle: saline
[4] = dose: 400.0 mg/kg/injection, schedule: Q01DX009 (ip), vehicle: saline with Tween-80
[5] = dose: 100.0 mg/kg/injection, schedule: Q01DX009 (ip), vehicle: saline with Tween-80
[6] = dose: 200.0 mg/kg/injection, schedule: Q01DX009 (ip), vehicle: saline with Tween-80
[7] = dose: 200.0 mg/kg/injection, schedule: Q04DX003 (ip), vehicle: saline with Tween-80
[8] = dose: 400.0 mg/kg/injection, schedule: Q04DX003 (ip), vehicle: saline with Tween-80
[9] = dose: 25.0 mg/kg/injection, schedule: Q01DX009 (ip), vehicle: saline with Tween-80
[10] = dose: 200.0 mg/kg/injection, schedule: Q01DX009 (ip), vehicle: water
[11] = dose: 400.0 mg/kg/injection, schedule: Q04DX003 (ip), vehicle: water

CC1(C)N=C(N)N=C(N)N1c1ccc(OCCCNC(=O)Nc2cccc(S(=O)(=O)F)c2)c(Cl)c1
T/C [1]: 133 % of control
survivor count (dose: 150.0 mg/kg/injection, schedule: Q01DX009 (ip), vehicle: saline with Tween-80): 4 of 6

O=[N+]([O-])[O-].OCCNCCNCC[OH2+].OCCNCCNCC[OH2+].[Ni+2]
survivor count [2]: 6 of 6
survivor count (dose: 100.0 mg/kg/injection, schedule: Q01DX009 (ip), vehicle: saline): 4 of 6
survivor count (dose: 200.0 mg/kg/injection, schedule: Q01DX009 (ip), vehicle: saline): 0 of 6

O/C(=C\C(=S)S)c1ccc(Cl)cc1
T/C (dose: 1.56 mg/kg/injection, schedule: Q04DX003 (ip), vehicle: saline with Tween-80): 127 % of control
survivor count [1]: 0 of 6

OCC1OCC(O)C(O)C1O (stereo not drawn)
T/C (dose: 100.0 mg/kg/injection, schedule: Q01DX010 (ip), vehicle: saline): 130 % of control
survivor count (dose: 256.0 mg/kg/injection, schedule: Q03HX024 (ip), vehicle: saline): 6 of 6
T/C [3]: 130 % of control
survivor count (dose: 512.0 mg/kg/injection, schedule: Q04DX003 (ip), vehicle: saline): 6 of 6

CCOc1cc(C=Nc2cccc(C(F)(F)F)c2)ccc1O
survivor count (dose: 200.0 mg/kg/injection, schedule: Q04DX003 (ip), vehicle: other): 6 of 6

C1=CC=CCC=C1
T/C (dose: 35.0 mg/kg/injection, schedule: Q01DX009 (ip), vehicle: saline): 127 % of control [5 of 6 alive]
survivor count [2]: 3 of 6
survivor count (dose: 75.0 mg/kg/injection, schedule: Q01DX009 (ip), vehicle: saline): 0 of 6 and 2 of 6
survivor count (dose: 75.0 mg/kg/injection, schedule: Q04DX003 (ip), vehicle: saline): 6 of 6
survivor count (dose: 115.0 mg/kg/injection, schedule: Q04DX003 (ip), vehicle: saline): 4 of 6
survivor count (dose: 170.0 mg/kg/injection, schedule: Q04DX003 (ip), vehicle: saline): 0 of 6

O=C1c2ccccc2C(=O)N1CCc1ccccn1
survivor count [4]: 0 of 6

CCCCCCCCCCCCCCCCCCOC(=O)Cc1ccc(N(CCCl)CCCl)cc1
T/C (dose: 44.0 mg/kg/injection, schedule: Q01DX007 (ip), vehicle: Klucel (hydroxypropylcellulose) (HPC)): 142 % of control
T/C (dose: 200.0 mg/kg/injection, schedule: Q01DX009 (ip), vehicle: Klucel (hydroxypropylcellulose) (HPC)): 138 % of control
T/C (dose: 200.0 mg/kg/injection, schedule: Q04DX002 (ip), vehicle: Klucel (hydroxypropylcellulose) (HPC)): 142 % of control
T/C (dose: 266.0 mg/kg/injection, schedule: Q04DX003 (ip), vehicle: Klucel (hydroxypropylcellulose) (HPC)): 129 % of control [5 of 6 alive]
T/C (dose: 266.0 mg/kg/injection, schedule: Q04DX003 (ip), vehicle: saline with Tween-80): 141 % of control

COc1cc(NC(C)CCCN)c2ncccc2c1Oc1ccc(Cl)cc1 (stereo not drawn)
survivor count [5]: 2 of 6
survivor count [6]: 0 of 6

O=CNC(Cc1cccc(N(CCCl)CCCl)c1)C(=O)O (stereo not drawn)
T/C (dose: 25.0 mg/kg/injection, schedule: Q04DX003 (ip), vehicle: saline with Tween-80): 131 % of control
T/C (dose: 37.5 mg/kg/injection, schedule: Q04DX003 (ip), vehicle: saline sonified): 127 % of control

CC[C@]12CN3CCc4c([nH]c5ccccc45)[C@@](C(=O)OC)(c4cc5c(cc4OC)N(C)[C@H]4[C@@](O)(C(=O)OC)[C@H](OC(C)=O)[C@]6(CC)C=CCN7CC[C@]54[C@@H]76)CC(C3)[C@H]1O2 (stereo partly drawn)
T/C (dose: 0.25 mg/kg/injection, schedule: Q01DX009 (ip), vehicle: saline): 135 % of control
T/C (dose: 0.75 mg/kg/injection, schedule: Q01DX009 (ip), vehicle: Klucel (hydroxypropylcellulose) (HPC)): 146 % of control
T/C (dose: 1.5 mg/kg/injection, schedule: Q01DX009 (ip), vehicle: Klucel (hydroxypropylcellulose) (HPC)): 146 % of control
survivor count (dose: 1.5 mg/kg/injection, schedule: Q01DX009 (ip), vehicle: none): 6 of 6
T/C (dose: 3.0 mg/kg/injection, schedule: Q01DX009 (ip), vehicle: Klucel (hydroxypropylcellulose) (HPC)): 138 % of control
survivor count (dose: 3.0 mg/kg/injection, schedule: Q01DX009 (ip), vehicle: none): 6 of 6
survivor count (dose: 4.0 mg/kg/injection, schedule: Q01DX009 (ip), vehicle: saline with Tween-80): 5 of 6
survivor count (dose: 6.0 mg/kg/injection, schedule: Q01DX009 (ip), vehicle: none): 6 of 6
survivor count (dose: 12.0 mg/kg/injection, schedule: Q01DX009 (ip), vehicle: none): 6 of 6
survivor count (dose: 24.0 mg/kg/injection, schedule: Q01DX009 (ip), vehicle: none): 6 of 6
survivor count (dose: 24.0 mg/kg/injection, schedule: Q01DX009 (ip), vehicle: saline): 0 of 6

CCOC(=O)N1CCN(C(=O)OCC)CC1
survivor count [7]: 6 of 6
survivor count [8]: 2 of 6

COc1cc2c(cc1OC)C1CCN3C(=O)CCC3N1CC2 (stereo not drawn)
survivor count [5]: 6 of 6

N#Cc1c(N)sc(N)c1C#N
T/C (dose: 100.0 mg/kg/injection, schedule: Q01DX009 (ip), vehicle: Klucel (hydroxypropylcellulose) (HPC)): 125 % of control

Cc1cc(C)c(C)c(Br)c1
survivor count [9]: 5 of 6

Cc1c(N)nc(Br)c2ccccc12
survivor count (dose: 400.0 mg/kg/injection, schedule: Q04DX003 (ip), vehicle: saline sonified): 6 of 6

COc1cc(C=O)c(C=O)cc1OC
survivor count [7]: 1 of 6
survivor count [8]: 0 of 6

CN=S(=O)(OCCCCCCCCCOS(=O)(=NC)c1ccc(C)cc1)c1ccc(C)cc1 (stereo not drawn)
T/C [9]: 126 % of control
T/C (dose: 50.0 mg/kg/injection, schedule: Q01DX009 (ip), vehicle: saline + alcohol): 129 % of control
survivor count (dose: 100.0 mg/kg/injection, schedule: Q01DX009 (ip), vehicle: saline + alcohol): 6 of 6
survivor count [5]: 6 of 6
survivor count (dose: 200.0 mg/kg/injection, schedule: Q01DX009 (ip), vehicle: saline + alcohol): 0 of 6

CCN1c2ccccc2CC(C#N)(CCN(C)C)c2ccccc21 (stereo not drawn)
survivor count [6]: 3 of 6
survivor count [4]: 0 of 6

CCOC(=O)c1ccc(OP(=O)(N(C)C)N(C)C)cc1
survivor count [5]: 0 of 6
survivor count [6]: 0 of 6

O=N[O-].O=N[O-].O=N[O-].[Co+3].[NH-]CC[N-]CC[NH-]
survivor count [5]: 0 of 6
survivor count [6]: 0 of 6

CSCCC(NC(C)=O)C(=O)O (stereo not drawn)
survivor count (dose: 400.0 mg/kg/injection, schedule: Q01DX009 (ip), vehicle: saline): 6 of 6

N=C(N)c1ccc(C(=N)N)cc1
survivor count [10]: 1 of 6
survivor count [11]: 1 of 6

CN1Cc2c(ccc3c2OCO3)[C@@H]2[C@H](O)Cc3cc4c(cc3[C@@H]21)OCO4
T/C (dose: 200.0 mg/kg/injection, schedule: Q01DX010 (ip), vehicle: saline): 140 % of control
survivor count [3]: 6 of 6

COC(=O)C(CO)NC(=O)OCc1ccc(OC)cc1 (stereo not drawn)
survivor count (dose: 6.25 mg/kg/injection, schedule: Q01DX009 (ip), vehicle: distilled water + Tween-80): 6 of 6

CC(C)N(CC#N)C(C)C
survivor count (dose: 1.0 mg/kg/injection, schedule: Q04DX003 (ip), vehicle: saline with Tween-80): 0 of 6
survivor count (dose: 50.0 mg/kg/injection, schedule: Q04DX003 (ip), vehicle: saline): 0 of 6
survivor count (dose: 100.0 mg/kg/injection, schedule: Q04DX003 (ip), vehicle: saline): 0 of 6
survivor count (dose: 200.0 mg/kg/injection, schedule: Q04DX003 (ip), vehicle: saline): 0 of 6

COc1ccc(CN2CC(C)NC(C)C2)cc1 (stereo not drawn)
survivor count (dose: 25.0 mg/kg/injection, schedule: Q04DX003 (ip), vehicle: water): 6 of 6
survivor count (dose: 50.0 mg/kg/injection, schedule: Q04DX003 (ip), vehicle: water): 5 of 6
T/C [10]: 146 % of control
survivor count (dose: 200.0 mg/kg/injection, schedule: Q04DX003 (ip), vehicle: water): 6 of 6
survivor count [11]: 1 of 6
